From paper PMC6876773
Read-outs that look alike come from different tables or passages of the source. No constants are given. Whether binding was seen depends on the method and setting. For some assays here: In cells and extracts the contact can be indirect. Some binding calls cover weakened binding; strength is not graded here. For some assays here: Sequences can lack the tags named with a protein.

Assays:
Smc5-TAP (budding yeast) = molecular target: T1, Smc5-TAP (budding yeast) (UniProt Q08204); experiment: co-IP; TAP- or FLAG-tagged bait immunoprecipitated from extracts of ground budding yeast cells (G1, S phase 30 min, or 0.2 M HU 90 min; also in checkpoint mutants sml1Δ rad53Δ, sml1Δ mec1Δ, mrc1Δ, tof1Δ, ctf18Δ, dcc1Δ and in mms21-CH); washes from 100 to 700 mM potassium acetate; immunoblotting
T1 sequence: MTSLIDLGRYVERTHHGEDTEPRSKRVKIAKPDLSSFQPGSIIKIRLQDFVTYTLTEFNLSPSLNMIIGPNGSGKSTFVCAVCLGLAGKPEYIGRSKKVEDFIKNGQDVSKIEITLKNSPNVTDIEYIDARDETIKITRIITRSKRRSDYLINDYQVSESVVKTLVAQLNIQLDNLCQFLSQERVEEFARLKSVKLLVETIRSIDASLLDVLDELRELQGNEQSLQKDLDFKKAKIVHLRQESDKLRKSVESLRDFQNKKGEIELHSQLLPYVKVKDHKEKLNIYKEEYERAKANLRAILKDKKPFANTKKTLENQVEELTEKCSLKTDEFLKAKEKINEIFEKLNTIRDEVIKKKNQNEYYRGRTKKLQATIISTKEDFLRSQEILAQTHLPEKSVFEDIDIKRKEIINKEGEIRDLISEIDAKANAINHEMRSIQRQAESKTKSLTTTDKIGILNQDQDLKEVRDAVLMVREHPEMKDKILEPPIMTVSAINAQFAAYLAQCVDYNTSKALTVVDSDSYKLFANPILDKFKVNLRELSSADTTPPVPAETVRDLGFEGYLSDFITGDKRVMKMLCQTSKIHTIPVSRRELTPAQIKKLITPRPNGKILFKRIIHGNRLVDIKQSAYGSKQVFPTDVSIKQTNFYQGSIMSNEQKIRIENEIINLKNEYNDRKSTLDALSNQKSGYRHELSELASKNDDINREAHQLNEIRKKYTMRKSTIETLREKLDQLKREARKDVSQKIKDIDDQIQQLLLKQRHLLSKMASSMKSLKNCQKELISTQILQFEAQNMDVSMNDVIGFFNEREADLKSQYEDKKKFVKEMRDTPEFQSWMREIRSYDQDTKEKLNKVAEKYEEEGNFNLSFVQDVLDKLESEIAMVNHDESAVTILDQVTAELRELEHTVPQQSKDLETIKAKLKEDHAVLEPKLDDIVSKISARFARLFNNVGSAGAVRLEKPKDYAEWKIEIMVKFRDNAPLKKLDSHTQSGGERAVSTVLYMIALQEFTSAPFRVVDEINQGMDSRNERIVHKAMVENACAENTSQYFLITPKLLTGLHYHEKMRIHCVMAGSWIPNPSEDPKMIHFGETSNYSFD

Dpb2-TAP (budding yeast) [1] = molecular target: T2, Dpb2-TAP (budding yeast) (UniProt P24482); experiment: as above
T2 sequence: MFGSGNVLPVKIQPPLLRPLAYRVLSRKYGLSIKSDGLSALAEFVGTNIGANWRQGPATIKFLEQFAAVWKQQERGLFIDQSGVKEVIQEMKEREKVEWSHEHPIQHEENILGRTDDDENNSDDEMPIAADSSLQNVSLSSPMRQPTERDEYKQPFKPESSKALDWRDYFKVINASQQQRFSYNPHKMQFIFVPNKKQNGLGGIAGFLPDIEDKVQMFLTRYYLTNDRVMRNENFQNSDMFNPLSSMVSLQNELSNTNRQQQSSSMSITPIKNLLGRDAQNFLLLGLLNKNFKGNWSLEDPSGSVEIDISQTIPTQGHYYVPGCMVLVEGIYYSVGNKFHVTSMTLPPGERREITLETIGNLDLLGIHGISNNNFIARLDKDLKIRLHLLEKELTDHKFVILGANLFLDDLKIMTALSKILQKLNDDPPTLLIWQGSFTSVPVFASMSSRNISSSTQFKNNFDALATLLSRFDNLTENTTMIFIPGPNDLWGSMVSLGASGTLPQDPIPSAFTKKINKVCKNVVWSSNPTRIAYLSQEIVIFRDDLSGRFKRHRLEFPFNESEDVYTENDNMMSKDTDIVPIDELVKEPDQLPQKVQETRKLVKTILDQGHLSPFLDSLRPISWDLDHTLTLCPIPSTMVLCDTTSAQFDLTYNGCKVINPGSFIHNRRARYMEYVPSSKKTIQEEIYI

[2] = molecular target: T3, Mms21-5FLAG (budding yeast) (UniProt P38632); experiment: as above
T3 sequence: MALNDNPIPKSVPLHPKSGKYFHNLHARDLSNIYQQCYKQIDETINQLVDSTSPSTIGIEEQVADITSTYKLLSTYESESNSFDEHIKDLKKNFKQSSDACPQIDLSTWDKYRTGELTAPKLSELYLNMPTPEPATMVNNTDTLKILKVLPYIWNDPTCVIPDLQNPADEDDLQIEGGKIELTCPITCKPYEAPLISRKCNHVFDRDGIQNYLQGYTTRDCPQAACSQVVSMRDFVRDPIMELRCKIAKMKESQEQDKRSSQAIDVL

[3] = molecular target: T4, Dpb2 (two-hybrid) (budding yeast) (UniProt P24482); experiment: two-hybrid; Gal4-based, pGADT7 and pGBKT7 derivatives in strain PJ69-4A; growth on SC lacking Trp, Leu, His (weak) or Trp, Leu, His, Ade (strong selection); serial dilutions
T4 sequence: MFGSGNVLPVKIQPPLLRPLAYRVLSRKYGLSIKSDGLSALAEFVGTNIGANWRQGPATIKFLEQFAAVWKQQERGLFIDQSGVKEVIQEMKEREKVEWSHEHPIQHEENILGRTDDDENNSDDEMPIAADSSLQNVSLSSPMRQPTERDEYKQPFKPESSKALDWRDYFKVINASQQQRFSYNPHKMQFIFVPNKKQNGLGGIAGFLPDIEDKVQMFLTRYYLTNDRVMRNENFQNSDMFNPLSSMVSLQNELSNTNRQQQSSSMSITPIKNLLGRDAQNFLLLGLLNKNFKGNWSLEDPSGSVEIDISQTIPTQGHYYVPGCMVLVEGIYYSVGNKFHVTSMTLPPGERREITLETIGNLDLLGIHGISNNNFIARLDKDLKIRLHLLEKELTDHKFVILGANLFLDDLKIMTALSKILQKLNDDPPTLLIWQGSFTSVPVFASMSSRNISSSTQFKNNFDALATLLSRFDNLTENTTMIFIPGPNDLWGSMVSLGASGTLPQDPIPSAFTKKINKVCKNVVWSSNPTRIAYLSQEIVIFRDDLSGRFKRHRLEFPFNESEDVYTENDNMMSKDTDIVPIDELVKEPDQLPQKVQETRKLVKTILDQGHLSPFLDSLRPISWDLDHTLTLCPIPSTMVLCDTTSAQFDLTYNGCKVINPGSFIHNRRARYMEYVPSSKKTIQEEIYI

Dpb2-TAP (budding yeast) [4] = molecular target: T2, Dpb2-TAP (budding yeast); experiment: co-IP; TAP- or FLAG-tagged bait immunoprecipitated from extracts of ground budding yeast cells (G1, S phase 30 min, or 0.2 M HU 90 min; also in checkpoint mutants sml1Δ rad53Δ, sml1Δ mec1Δ, mrc1Δ, tof1Δ, ctf18Δ, dcc1Δ and in mms21-CH); washes from 100 to 700 mM potassium acetate; immunoblotting; remark: listed apart in the source

In the case of “DNA polymerase epsilon (Pol ε) (from UniProt P21951 1-2222; P24482 1-689; P27344 1-201; Q04603 1-196) (complex)”, the binding (Smc5-TAP (budding yeast)) is reported as “binds”.

With “Pol2 with mutations in the SIM motif (pol2-sim), from the endogenous POL2 locus (from UniProt P21951 1-2222)” the binding (Dpb2-TAP (budding yeast) [1]) was “binds”.

With “Pol2, the catalytic subunit of DNA polymerase ε (from UniProt P21951 1-2222)” the binding [2] was “binds” and the binding (Dpb2-TAP (budding yeast) [1]) was “binds”.

B1: Pol2 (1128–2222), C-terminal half (domain or fragment, UniProt P21951 1128-2222)
chain: LDPSLEDLDIRTIIDWGYYRERLGSAIQKIITIPAALQGVSNPVPRVEHPDWLKRKIATKEDKFKQTSLTKFFSKTKNVPTMGKIKDIEDLFEPTVEEDNAKIKIARTTKKKAVSKRKRNQLTNEEDPLVLPSEIPSMDEDYVGWLNYQKIKWKIQARDRKRRDQLFGNTNSSRERSALGSMIRKQAESYANSTWEVLQYKDSGEPGVLEVFVTINGKVQNITFHIPKTIYMKFKSQTMPLQKIKNCLIEKSSASLPNNPKTSNPAGGQLFKITLPESVFLEEKENCTSIFNDENVLGVFEGTITPHQRAIMDLGASVTFRSKAMGALGKGIQQGFEMKDLSMAENERYLSGFSMDIGYLLHFPTSIGYEFFSLFKSWGDTITILVLKPSNQAQEINASSLGQIYKQMFEKKKGKIETYSYLVDIKEDINFEFVYFTDISKLYRRLSQETTKLKEERGLQFLLLLQSPFITKLLGTIRLLNQMPIVKLSLNEVLLPQLNWQPTLLKKLVNHVLSSGSWISHLIKLSQYSNIPICNLRLDSMDYIIDVLYARKLKKENIVLWWNEKAPLPDHGGIQNDFDLNTSWIMNDSEFPKINNSGVYDNVVLDVGVDNLTVNTILTSALINDAEGSDLVNNNMGIDDKDAVINSPSEFVHDAFSNDALNVLRGMLKEWWDEALKENSTADLLVNSLASWVQNPNAKLFDGLLRYHVHNLTKKALLQLVNEFSALGSTIVYADRNQILIKTNKYSPENCYAYSQYMMKAVRTNPMFSYLDLNIKRYWDLLIWMDKFNFSGLACIEIEEKENQDYTAVSQWQLKKFLSPIYQPEFEDWMMIILDSMLKTKQSYLKLNSGTQRPTQIVNVKKQDKEDSVENSLNGFSHLFSKPLMKRVKKLFKNQQEFILDPQYEADYVIPVLPGSHLNVKNPLLELVKSLCHVMLLSKSTILEIRTLRKELLKIFELREFAKVAEFKDPSLSLVVPDFLCEYCFFISDIDFCKAAPESIFSCVRCHKAFNQVLLQEHLIQKLRSDIESYLIQDLRCSRCHKVKRDYMSAHCPCAGAWEGTLPRESIVQKLNVFKQVAKYYGFDILLSCIADLTI
In the case of B1, the binding [3] is reported as “binds”.

B2: Wild type Pol2 fragment 2103–2222 (domain or fragment, UniProt P21951 2103-2222)
chain: VPDFLCEYCFFISDIDFCKAAPESIFSCVRCHKAFNQVLLQEHLIQKLRSDIESYLIQDLRCSRCHKVKRDYMSAHCPCAGAWEGTLPRESIVQKLNVFKQVAKYYGFDILLSCIADLTI
With B2 the binding [3] was “binds”.

B3: FLAG-tagged version of Smc5 (protein, UniProt Q08204 1-1093)
chain: MTSLIDLGRYVERTHHGEDTEPRSKRVKIAKPDLSSFQPGSIIKIRLQDFVTYTLTEFNLSPSLNMIIGPNGSGKSTFVCAVCLGLAGKPEYIGRSKKVEDFIKNGQDVSKIEITLKNSPNVTDIEYIDARDETIKITRIITRSKRRSDYLINDYQVSESVVKTLVAQLNIQLDNLCQFLSQERVEEFARLKSVKLLVETIRSIDASLLDVLDELRELQGNEQSLQKDLDFKKAKIVHLRQESDKLRKSVESLRDFQNKKGEIELHSQLLPYVKVKDHKEKLNIYKEEYERAKANLRAILKDKKPFANTKKTLENQVEELTEKCSLKTDEFLKAKEKINEIFEKLNTIRDEVIKKKNQNEYYRGRTKKLQATIISTKEDFLRSQEILAQTHLPEKSVFEDIDIKRKEIINKEGEIRDLISEIDAKANAINHEMRSIQRQAESKTKSLTTTDKIGILNQDQDLKEVRDAVLMVREHPEMKDKILEPPIMTVSAINAQFAAYLAQCVDYNTSKALTVVDSDSYKLFANPILDKFKVNLRELSSADTTPPVPAETVRDLGFEGYLSDFITGDKRVMKMLCQTSKIHTIPVSRRELTPAQIKKLITPRPNGKILFKRIIHGNRLVDIKQSAYGSKQVFPTDVSIKQTNFYQGSIMSNEQKIRIENEIINLKNEYNDRKSTLDALSNQKSGYRHELSELASKNDDINREAHQLNEIRKKYTMRKSTIETLREKLDQLKREARKDVSQKIKDIDDQIQQLLLKQRHLLSKMASSMKSLKNCQKELISTQILQFEAQNMDVSMNDVIGFFNEREADLKSQYEDKKKFVKEMRDTPEFQSWMREIRSYDQDTKEKLNKVAEKYEEEGNFNLSFVQDVLDKLESEIAMVNHDESAVTILDQVTAELRELEHTVPQQSKDLETIKAKLKEDHAVLEPKLDDIVSKISARFARLFNNVGSAGAVRLEKPKDYAEWKIEIMVKFRDNAPLKKLDSHTQSGGERAVSTVLYMIALQEFTSAPFRVVDEINQGMDSRNERIVHKAMVENACAENTSQYFLITPKLLTGLHYHEKMRIHCVMAGSWIPNPSEDPKMIHFGETSNYSFD
In the case of B3, the binding (Dpb2-TAP (budding yeast) [4]) is reported as “binds”.

B4: Mms21-5FLAG (protein, UniProt P38632 1-267)
chain: MALNDNPIPKSVPLHPKSGKYFHNLHARDLSNIYQQCYKQIDETINQLVDSTSPSTIGIEEQVADITSTYKLLSTYESESNSFDEHIKDLKKNFKQSSDACPQIDLSTWDKYRTGELTAPKLSELYLNMPTPEPATMVNNTDTLKILKVLPYIWNDPTCVIPDLQNPADEDDLQIEGGKIELTCPITCKPYEAPLISRKCNHVFDRDGIQNYLQGYTTRDCPQAACSQVVSMRDFVRDPIMELRCKIAKMKESQEQDKRSSQAIDVL
With B4 the binding (Dpb2-TAP (budding yeast) [4]) was “binds”.
